Data published in patent US9198422B2, “Pesticidal pyrazole compounds” (BASF SE, priority 2011, dated 2015).
Some entries share one result that the patent states for a list of compounds.

Assays:
Type in all cases: in vivo
Megoura viciae = test: B.4 Vetch aphid bean leaf disk microtiter test; settings: 2500 ppm; 6 days
Aphis craccivora = test: B.1 Cowpea aphid spray test on potted cowpea plants; settings: 500 ppm; population reduction assessed after 24, 72 and 120 hours
Myzus persicae = test: B.5 Green peach aphid spray test on bell pepper plants; settings: 10 ppm; after 5 days
Aphis gossypii = test: B.2 Cotton aphid, mixed life stages, spray test on cotton plants; settings: 10 ppm; after 5 days
Bemisia argentifolii = test: B.3 Silverleaf whitefly, adult, spray test on cotton plants; settings: 10 ppm; 3 days after treatment
Dichromothrips corbetti = test: B.8 Orchid thrips petal dip test; settings: 500 ppm; after 72 hours
Method: B.8 Orchid Thrips (Dichromothrips corbetti)
The active compounds were formulated as a 1:1 (vol:vol) water:aceton solution. Surfactant (Alkamuls EL 620) was added at the rate of 0.1% (vol/vol). Vanda orchids petals were cleaned, washed and air dried prior to spraying. Petals were dipped into the test solution for 3 seconds, air dried, placed inside a resealable plastic and inoculated with 20 adults. The treated petals were kept inside the holding room at 28-29° C. and relative humidity of 50-60%. Percent mortality was recorded after 72 hours.

Nilaparvata lugens = test: B.7 Rice plant hopper spray test on rice seedlings; settings: 500 ppm; after 72 hours

Measured: mortality in comparison with untreated controls

CCN(C(=O)c1cnn(C(C)C(F)(F)F)c1C)c1ccnnc1 (stereo not drawn) [I-370]
not listed: Nilaparvata lugens
at least 75%: all other assays above

CCC(C)n1ncc(C(=O)Nc2ccnnc2)c1C (stereo not drawn) [I-9]
not listed: Dichromothrips corbetti
at least 75%: all other assays above

Cc1c(C(=O)Nc2cccnc2)cnn1C(C)(C)C#N [I-245]
at least 75%: Megoura viciae | Nilaparvata lugens | Aphis craccivora

CCN(C(=S)c1cnn(C(C)C2CC2)c1C)c1cccnc1 (stereo not drawn) [I-62]
not listed: Bemisia argentifolii | Dichromothrips corbetti
at least 75%: all other assays above

C=CC(C)n1ncc(C(=O)Nc2ccnnc2)c1C (stereo not drawn) [I-68]
at least 75%: Megoura viciae | Nilaparvata lugens | Aphis craccivora | Bemisia argentifolii

CCOC(=O)CC(C)n1ncc(C(=O)N(CC)c2cccnc2)c1C (stereo not drawn) [I-312]
at least 75%: Megoura viciae | Nilaparvata lugens | Aphis craccivora

COCN(C(=O)c1cnn(C(C)C(C)(C)C)c1C)c1ccnnc1 (racemic) [I-43]
not listed: Nilaparvata lugens
at least 75%: all other assays above

CCOCN(C(=O)c1cnn(C(C)(C)C(F)(F)F)c1C)c1cccnc1 [I-115]
not listed: Nilaparvata lugens
at least 75%: all other assays above

Cc1c(C(=O)N(C)c2cccnc2)cnn1C(C)CC#N (stereo not drawn) [I-109]
not listed: Nilaparvata lugens
at least 75%: all other assays above

Cc1c(C(=O)N(C)c2ccnnc2)cnn1C(C)CF (stereo not drawn) [I-142]
not listed: Nilaparvata lugens
at least 75%: all other assays above

Cc1c(C(=O)N(C)c2ccnnc2)cnn1C(C)c1ccccc1 (racemic) [I-168]
not listed: Megoura viciae | Nilaparvata lugens
at least 75%: all other assays above

Cc1c(C(=O)Nc2ccnnc2)cnn1C(C)CF (stereo not drawn) [I-141]
not listed: Bemisia argentifolii | Dichromothrips corbetti
at least 75%: all other assays above

Cc1c(C(=O)Nc2ccnnc2)cnn1C(C)C1(F)CC1 (racemic) [I-39]
not listed: Megoura viciae | Nilaparvata lugens
at least 75%: all other assays above

Cc1c(C(=O)Nc2cccnc2)cnn1C(C)C(F)F (stereo not drawn) [I-202]
not listed: Megoura viciae | Nilaparvata lugens
at least 75%: all other assays above

Cc1c(C(=O)N(C)c2cccnc2)cnn1C(C)C1CC1 (stereo not drawn) [I-373]
not listed: Bemisia argentifolii | Nilaparvata lugens
at least 75%: all other assays above

Cc1c(C(=O)N(C)c2cccnc2)cnn1C(C)C(F)F (stereo not drawn) [I-204]
not listed: Megoura viciae
at least 75%: all other assays above

COCCC(C)n1ncc(C(=O)Nc2ccnnc2)c1C (stereo not drawn) [I-133]
not listed: Nilaparvata lugens
at least 75%: all other assays above

Cc1c(C(=O)Nc2cccnc2)cnn1C(C)(C)C(F)(F)F [I-83]
not listed: Bemisia argentifolii | Nilaparvata lugens
at least 75%: all other assays above

COCC(C)n1ncc(C(=O)Nc2ccnnc2)c1C (stereo not drawn) [I-4]
not listed: Nilaparvata lugens
at least 75%: all other assays above

COCN(C(=O)c1cnn(C(C)C2CC2)c1C)c1ccnnc1 (stereo not drawn) [I-371]
not listed: Dichromothrips corbetti
at least 75%: all other assays above

Cc1c(C(=O)N(C)c2cccnc2)cnn1C(C)CF (stereo not drawn) [I-146]
not listed: Aphis gossypii | Nilaparvata lugens
at least 75%: all other assays above

Cc1c(C(=O)Nc2ccnnc2)cnn1C(C)C#N (racemic) [I-35]
at least 75%: all assays above

Cc1c(C(=O)N(C)c2ccnnc2)cnn1C(C)C(F)(F)C(F)F (stereo not drawn) [I-29]
not listed: Dichromothrips corbetti
at least 75%: all other assays above

CCC(n1ncc(C(=O)N(C)c2cccnc2)c1C)C(F)(F)F (stereo not drawn) [I-107]
not listed: Bemisia argentifolii | Nilaparvata lugens
at least 75%: all other assays above

CCN(C(=O)c1cnn(C(C)C(C)F)c1C)c1cccnc1 (single isomer, unassigned) [I-184]
at least 75%: Myzus persicae | Aphis gossypii | Bemisia argentifolii | Dichromothrips corbetti

COCC(C)(C)n1ncc(C(=O)Nc2ccnnc2)c1C [I-25]
at least 75%: Megoura viciae | Nilaparvata lugens | Aphis craccivora
